The values that follow come from PMC10646096.

The chains behind the UniProt entries cited, without tags or fusion partners.
UniProt P22314: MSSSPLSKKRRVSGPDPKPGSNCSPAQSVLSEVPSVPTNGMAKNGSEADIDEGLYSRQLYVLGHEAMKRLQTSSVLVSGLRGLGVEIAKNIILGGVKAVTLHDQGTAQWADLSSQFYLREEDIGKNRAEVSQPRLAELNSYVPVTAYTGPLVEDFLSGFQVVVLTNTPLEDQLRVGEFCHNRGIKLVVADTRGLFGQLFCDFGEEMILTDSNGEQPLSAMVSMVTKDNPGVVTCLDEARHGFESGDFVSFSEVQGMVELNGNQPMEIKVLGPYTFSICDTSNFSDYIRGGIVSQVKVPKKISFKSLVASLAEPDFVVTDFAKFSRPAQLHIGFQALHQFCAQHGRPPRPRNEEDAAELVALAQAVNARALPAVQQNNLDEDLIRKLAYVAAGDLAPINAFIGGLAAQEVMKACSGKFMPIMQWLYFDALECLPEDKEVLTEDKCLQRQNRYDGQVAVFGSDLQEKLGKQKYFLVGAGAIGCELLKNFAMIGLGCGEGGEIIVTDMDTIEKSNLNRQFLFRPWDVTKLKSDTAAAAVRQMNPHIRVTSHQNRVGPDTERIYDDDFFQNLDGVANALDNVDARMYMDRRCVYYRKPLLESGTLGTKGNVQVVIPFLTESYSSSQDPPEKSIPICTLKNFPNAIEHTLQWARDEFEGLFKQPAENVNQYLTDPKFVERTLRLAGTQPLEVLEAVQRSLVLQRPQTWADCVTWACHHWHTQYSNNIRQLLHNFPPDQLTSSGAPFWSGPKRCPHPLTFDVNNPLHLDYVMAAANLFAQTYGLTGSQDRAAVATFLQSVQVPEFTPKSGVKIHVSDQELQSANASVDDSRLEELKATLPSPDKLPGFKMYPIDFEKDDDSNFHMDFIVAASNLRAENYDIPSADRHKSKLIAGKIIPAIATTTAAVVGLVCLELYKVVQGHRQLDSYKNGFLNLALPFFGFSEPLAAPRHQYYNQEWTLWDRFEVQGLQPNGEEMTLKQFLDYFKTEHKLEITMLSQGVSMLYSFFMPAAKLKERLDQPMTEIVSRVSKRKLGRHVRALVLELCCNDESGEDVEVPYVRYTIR
UniProt O14933: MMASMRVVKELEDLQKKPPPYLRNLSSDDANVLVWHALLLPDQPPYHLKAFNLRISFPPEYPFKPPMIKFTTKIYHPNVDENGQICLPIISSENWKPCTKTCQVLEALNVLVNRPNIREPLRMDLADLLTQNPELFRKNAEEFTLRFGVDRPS

These are yes or no findings as the source states them, for the method shown. Binding seen in cells or lysates may run through a third protein. A yes stands for co-enrichment or nearness to the bait. Other partners may have been found.

The target of one assay is UBA1 (human) (UniProt P22314). The experiment in a line: affinity purification with mass spectrometry; C-terminally FLAG-tagged E1/E2 baits transfected in HEK293T; NP40 lysate, FLAG affinity resin at 4 °C overnight, eluted with FLAG peptide; spectral counting, SAINT >= 0.65 against no-FLAG controls; 3 replicates a bait, 10 controls.
The target of the next assay is UBE2L6 (human) (UniProt O14933). Described as above.

B1: UBE2G1 (enzyme, UniProt P62253 1-170)
chain: MTELQSALLLRRQLAELNKNPVEGFSAGLIDDNDLYRWEVLIIGPPDTLYEGGVFKAHLTFPKDYPLRPPKMKFITEIWHPNVDKNGDVCISILHEPGEDKYGYEKPEERWLPIHTVETIMISVISMLADPNGDSPANVDAAKEWREDRNGEFKRKVARCVRKSQETAFE
Turning to B1, the binding result in the assay with UBA1 (human) is reported as “binds”.

B2: UBE2J1 (enzyme, UniProt Q9Y385 1-318)
chain: METRYNLKSPAVKRLMKEAAELKDPTDHYHAQPLEDNLFEWHFTVRGPPDSDFDGGVYHGRIVLPPEYPMKPPSIILLTANGRFEVGKKICLSISGHHPETWQPSWSIRTALLAIIGFMPTKGEGAIGSLDYTPEERRALAKKSQDFCCEGCGSAMKDVLLPLKSGSDSSQADQEAKELARQISFKAEVNSSGKTISESDLNHSFSLTDLQDDIPTTFQGATASTSYGLQNSSAASFHQPTQPVAKNTSMSPRQRRAQQQSQRRLSTSPDVIQGHQPRDNHTDHGGSAVLIVILTLALAALIFRRIYLANEYIFDFEL
Consider B2, for which the binding entry with UBA1 (human) is “binds”.

B3: UBA6 (enzyme, UniProt A0AVT1 1-1052)
chain: MEGSEPVAAHQGEEASCSSWGTGSTNKNLPIMSTASVEIDDALYSRQRYVLGDTAMQKMAKSHVFLSGMGGLGLEIAKNLVLAGIKAVTIHDTEKCQAWDLGTNFFLSEDDVVNKRNRAEAVLKHIAELNPYVHVTSSSVPFNETTDLSFLDKYQCVVLTEMKLPLQKKINDFCRSQCPPIKFISADVHGIWSRLFCDFGDEFEVLDTTGEEPKEIFISNITQANPGIVTCLENHPHKLETGQFLTFREINGMTGLNGSIQQITVISPFSFSIGDTTELEPYLHGGIAVQVKTPKTVFFESLERQLKHPKCLIVDFSNPEAPLEIHTAMLALDQFQEKYSRKPNVGCQQDSEELLKLATSISETLEEKPDVNADIVHWLSWTAQGFLSPLAAAVGGVASQEVLKAVTGKFSPLCQWLYLEAADIVESLGKPECEEFLPRGDRYDALRACIGDTLCQKLQNLNIFLVGCGAIGCEMLKNFALLGVGTSKEKGMITVTDPDLIEKSNLNRQFLFRPHHIQKPKSYTAADATLKINSQIKIDAHLNKVCPTTETIYNDEFYTKQDVIITALDNVEARRYVDSRCLANLRPLLDSGTMGTKGHTEVIVPHLTESYNSHRDPPEEEIPFCTLKSFPAAIEHTIQWARDKFESSFSHKPSLFNKFWQTYSSAEEVLQKIQSGHSLEGCFQVIKLLSRRPRNWSQCVELARLKFEKYFNHKALQLLHCFPLDIRLKDGSLFWQSPKRPPSPIKFDLNEPLHLSFLQNAAKLYATVYCIPFAEEDLSADALLNILSEVKIQEFKPSNKVVQTDETARKPDHVPISSEDERNAIFQLEKAILSNEATKSDLQMAVLSFEKDDDHNGHIDFITAASNLRAKMYSIEPADRFKTKRIAGKIIPAIATTTATVSGLVALEMIKVTGGYPFEAYKNCFLNLAIPIVVFTETTEVRKTKIRNGISFTIWDRWTVHGKEDFTLLDFINAVKEKYGIEPTMVVQGVKMLYVPVMPGHAKRLKLTMHKLVKPTTEKKYVDLTVSFAPDIDGDEDLPGPPVRYYFSHDTD
As to B3, in the assay with UBE2L6 (human), the binding entry is listed as “binds”.

B4: UBE2J2 (enzyme, UniProt Q8N2K1 1-259)
chain: MSSTSSKRAPTTATQRLKQDYLRIKKDPVPYICAEPLPSNILEWHYVVRGPEMTPYEGGYYHGKLIFPREFPFKPPSIYMITPNGRFKCNTRLCLSITDFHPDTWNPAWSVSTILTGLLSFMVEKGPTLGSIETSDFTKRQLAVQSLAFNLKDKVFCELFPEVVEEIKQKQKAQDELSSRPQTLPLPDVVPDGETHLVQNGIQLLNGHAPGAVPNLAGLQQANRHHGLLGGALANLFVIVGFAAFAYTVKYVLRSIAQE
Consider B4, for which the binding entry with UBA1 (human) was “binds”.
